The values below come from article PMC8257704.

By UniProt entry, the sequences of proteins in these tests, tags left out.
UniProt Q5SF07: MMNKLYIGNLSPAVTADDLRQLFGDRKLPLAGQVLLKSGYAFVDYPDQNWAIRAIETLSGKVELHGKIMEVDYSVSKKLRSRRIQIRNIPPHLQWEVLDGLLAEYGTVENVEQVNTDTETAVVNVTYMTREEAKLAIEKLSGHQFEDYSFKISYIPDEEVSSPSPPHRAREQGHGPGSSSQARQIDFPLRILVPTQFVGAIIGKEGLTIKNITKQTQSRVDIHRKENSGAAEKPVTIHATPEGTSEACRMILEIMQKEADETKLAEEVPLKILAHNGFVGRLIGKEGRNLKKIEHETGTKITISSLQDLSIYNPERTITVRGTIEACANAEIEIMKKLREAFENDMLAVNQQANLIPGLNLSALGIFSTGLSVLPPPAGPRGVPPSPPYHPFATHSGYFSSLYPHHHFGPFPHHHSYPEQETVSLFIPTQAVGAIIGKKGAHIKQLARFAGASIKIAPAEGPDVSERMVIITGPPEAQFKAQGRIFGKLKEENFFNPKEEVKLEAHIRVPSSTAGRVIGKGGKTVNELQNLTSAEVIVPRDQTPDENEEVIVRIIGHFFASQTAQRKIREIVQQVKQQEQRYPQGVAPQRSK
UniProt Q8CJG0: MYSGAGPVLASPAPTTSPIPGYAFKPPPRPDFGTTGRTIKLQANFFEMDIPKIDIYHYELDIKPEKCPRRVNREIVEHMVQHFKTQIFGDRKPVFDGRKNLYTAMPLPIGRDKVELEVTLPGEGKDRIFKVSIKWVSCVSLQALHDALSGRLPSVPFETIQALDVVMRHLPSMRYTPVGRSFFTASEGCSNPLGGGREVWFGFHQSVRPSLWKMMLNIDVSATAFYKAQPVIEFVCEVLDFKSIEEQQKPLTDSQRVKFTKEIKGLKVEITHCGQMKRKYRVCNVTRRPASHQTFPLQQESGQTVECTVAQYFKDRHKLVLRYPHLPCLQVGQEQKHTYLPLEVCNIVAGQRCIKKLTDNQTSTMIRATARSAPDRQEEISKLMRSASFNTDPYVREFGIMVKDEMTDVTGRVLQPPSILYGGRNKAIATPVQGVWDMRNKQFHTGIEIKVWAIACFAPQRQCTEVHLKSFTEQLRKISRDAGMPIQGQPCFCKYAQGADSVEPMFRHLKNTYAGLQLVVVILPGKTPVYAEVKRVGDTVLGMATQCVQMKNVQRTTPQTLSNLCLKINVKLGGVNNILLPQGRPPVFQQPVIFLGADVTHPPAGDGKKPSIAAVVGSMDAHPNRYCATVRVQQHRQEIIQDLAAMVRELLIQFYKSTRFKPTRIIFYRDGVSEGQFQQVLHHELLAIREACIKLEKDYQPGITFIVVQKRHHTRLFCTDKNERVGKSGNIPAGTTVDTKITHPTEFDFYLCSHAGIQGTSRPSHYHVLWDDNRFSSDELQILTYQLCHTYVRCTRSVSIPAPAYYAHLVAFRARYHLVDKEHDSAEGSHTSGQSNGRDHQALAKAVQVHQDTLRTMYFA

These are yes or no findings as the source states them, for the method shown. In cells and extracts the contact can be indirect. Some binding calls cover weakened binding; strength is not graded here.

For experiment [1], the target named is Insulin-like growth factor 2 mRNA binding protein 2 (mouse (endogenous in neonatal mouse cardiomyocytes)) (UniProt Q5SF07). Briefly: co-IP; neonatal mouse cardiomyocytes lysed in RIPA buffer; immunoprecipitated with AGO2 or IGF2BP2 antibody or the corresponding IgG, Protein A/G Magnetic Beads, washed three times, western blotting. (A western blot detects proteins with antibodies after separation by electrophoresis.)

Experiment [2] deals with Argonaute 2 (mouse (endogenous in neonatal mouse cardiomyocytes)) (UniProt Q8CJG0). Described as above.

As to Argonaute 2 (from UniProt Q8CJG0 1-860), in experiment [1], the binding entry is reported as “binds”.
As to “Insulin-like growth factor 2 mRNA binding protein 2 (from UniProt Q5SF07 1-592)”, the binding entry in experiment [2] was “binds”.
